Measurements from article PMC10681723.
Results are given in words; binding and its absence hold for the method and conditions named. In cells and extracts the contact can be indirect. Some results given as binding are weak or reduced against the parent protein; the word gives no strength.

Chains of the proteins cited; added tags and fusions are not shown. Lines headed by an entry give the natural chain unless they say otherwise; changes in a name come on top. A line that says so, or that is headed by a name, gives the form on record, which may keep a tag or linker.
UniProt P32558: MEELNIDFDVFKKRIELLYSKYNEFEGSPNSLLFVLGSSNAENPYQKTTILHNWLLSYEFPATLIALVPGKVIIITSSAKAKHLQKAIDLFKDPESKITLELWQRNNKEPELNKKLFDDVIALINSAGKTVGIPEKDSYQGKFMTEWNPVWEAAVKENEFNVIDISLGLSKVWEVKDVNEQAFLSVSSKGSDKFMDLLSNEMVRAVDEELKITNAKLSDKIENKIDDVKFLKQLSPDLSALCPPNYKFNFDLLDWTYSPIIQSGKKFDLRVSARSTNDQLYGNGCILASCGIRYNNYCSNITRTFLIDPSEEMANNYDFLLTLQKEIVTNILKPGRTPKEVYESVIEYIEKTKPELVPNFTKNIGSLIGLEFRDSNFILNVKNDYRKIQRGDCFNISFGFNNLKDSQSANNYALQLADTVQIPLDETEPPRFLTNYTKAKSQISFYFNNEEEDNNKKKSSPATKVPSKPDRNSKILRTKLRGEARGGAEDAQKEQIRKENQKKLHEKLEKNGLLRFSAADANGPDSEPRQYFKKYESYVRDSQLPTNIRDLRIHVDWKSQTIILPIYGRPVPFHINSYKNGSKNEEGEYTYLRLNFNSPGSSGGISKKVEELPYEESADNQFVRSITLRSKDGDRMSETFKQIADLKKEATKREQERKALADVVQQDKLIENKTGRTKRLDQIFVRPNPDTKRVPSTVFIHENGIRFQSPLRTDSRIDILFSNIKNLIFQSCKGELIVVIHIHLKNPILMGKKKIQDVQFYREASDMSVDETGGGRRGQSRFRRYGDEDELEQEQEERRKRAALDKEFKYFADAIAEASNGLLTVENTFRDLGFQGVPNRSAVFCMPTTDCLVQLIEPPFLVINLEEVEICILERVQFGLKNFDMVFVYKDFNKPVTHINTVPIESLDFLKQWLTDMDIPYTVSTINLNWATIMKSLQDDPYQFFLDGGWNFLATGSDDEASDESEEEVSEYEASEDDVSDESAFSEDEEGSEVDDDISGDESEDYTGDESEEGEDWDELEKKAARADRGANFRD
TAP-tagged Spt16-m (SPT16-K692R693AA) (budding yeast (S. cerevisiae)) (P32558, form named): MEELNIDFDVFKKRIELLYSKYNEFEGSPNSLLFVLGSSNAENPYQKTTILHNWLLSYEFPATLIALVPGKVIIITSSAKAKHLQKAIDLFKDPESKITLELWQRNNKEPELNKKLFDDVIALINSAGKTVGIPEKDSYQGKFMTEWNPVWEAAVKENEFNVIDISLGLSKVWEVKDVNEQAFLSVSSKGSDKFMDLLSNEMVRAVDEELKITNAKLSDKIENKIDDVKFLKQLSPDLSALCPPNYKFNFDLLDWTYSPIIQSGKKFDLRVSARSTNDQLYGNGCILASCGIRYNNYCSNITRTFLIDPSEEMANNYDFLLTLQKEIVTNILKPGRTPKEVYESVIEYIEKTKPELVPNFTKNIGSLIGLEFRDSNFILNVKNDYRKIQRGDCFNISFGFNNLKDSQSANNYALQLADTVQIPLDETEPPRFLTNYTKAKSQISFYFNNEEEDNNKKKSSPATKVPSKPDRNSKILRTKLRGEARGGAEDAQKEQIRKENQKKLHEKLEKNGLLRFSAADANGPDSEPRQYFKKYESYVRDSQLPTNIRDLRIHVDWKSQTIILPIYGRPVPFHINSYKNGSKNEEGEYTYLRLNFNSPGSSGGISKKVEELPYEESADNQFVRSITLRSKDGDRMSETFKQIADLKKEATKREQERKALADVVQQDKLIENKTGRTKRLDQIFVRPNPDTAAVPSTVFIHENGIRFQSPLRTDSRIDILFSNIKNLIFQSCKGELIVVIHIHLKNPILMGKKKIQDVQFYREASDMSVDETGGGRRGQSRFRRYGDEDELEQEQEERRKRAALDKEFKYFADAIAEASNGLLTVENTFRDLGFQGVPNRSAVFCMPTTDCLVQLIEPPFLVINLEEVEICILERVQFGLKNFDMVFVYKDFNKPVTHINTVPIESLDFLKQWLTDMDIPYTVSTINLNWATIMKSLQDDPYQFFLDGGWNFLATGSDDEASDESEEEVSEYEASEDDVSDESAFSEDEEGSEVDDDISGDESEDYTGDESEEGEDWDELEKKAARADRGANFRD

Columns and labels:
[1] = molecular target: TAP-tagged Spt16 (Spt16-TAP), wild type (budding yeast (S. cerevisiae)) (UniProt P32558); assay: co-IP; tandem affinity purification of TAP-tagged Spt16 from yeast lysate (IgG Sepharose, TEV elution, calmodulin resin; 25 mM Tris pH 8.0, 100 mM NaCl, DNase I); co-purified proteins by immunoblotting
[2] = molecular target: TAP-tagged Spt16-m (SPT16-K692R693AA) (budding yeast (S. cerevisiae)) (UniProt P32558); assay: as above

B1: Mcm4 (as detected in Figure 3F) (protein, UniProt P30665 1-933)
chain: MSQQSSSPTKEDNNSSSPVVPNPDSVPPQLSSPALFYSSSSSQGDIYGRNNSQNLSQGEGNIRAAIGSSPLNFPSSSQRQNSDVFQSQGRQGRIRSSASASGRSRYHSDLRSDRALPTSSSSLGRNGQNRVHMRRNDIHTSDLSSPRRIVDFDTRSGVNTLDTSSSSAPPSEASEPLRIIWGTNVSIQECTTNFRNFLMSFKYKFRKILDEREEFINNTTDEELYYIKQLNEMRELGTSNLNLDARNLLAYKQTEDLYHQLLNYPQEVISIMDQTIKDCMVSLIVDNNLDYDLDEIETKFYKVRPYNVGSCKGMRELNPNDIDKLINLKGLVLRSTPVIPDMKVAFFKCNVCDHTMAVEIDRGVIQEPARCERIDCNEPNSMSLIHNRCSFADKQVIKLQETPDFVPDGQTPHSISLCVYDELVDSCRAGDRIEVTGTFRSIPIRANSRQRVLKSLYKTYVDVVHVKKVSDKRLDVDTSTIEQELMQNKVDHNEVEEVRQITDQDLAKIREVAAREDLYSLLARSIAPSIYELEDVKKGILLQLFGGTNKTFTKGGRYRGDINILLCGDPSTSKSQILQYVHKITPRGVYTSGKGSSAVGLTAYITRDVDTKQLVLESGALVLSDGGVCCIDEFDKMSDSTRSVLHEVMEQQTISIAKAGIITTLNARSSILASANPIGSRYNPNLPVTENIDLPPPLLSRFDLVYLVLDKVDEKNDRELAKHLTNLYLEDKPEHISQDDVLPVEFLTMYISYAKEHIHPIITEAAKTELVRAYVGMRKMGDDSRSDEKRITATTRQLESMIRLAEAHAKMKLKNVVELEDVQEAVRLIRSAIKDYATDPKTGKIDMNLVQTGKSVIQRKLQEDLSREIMNVLKDQASDSMSFNELIKQINEHSQDRVESSDIQEALSRLQQEDKVIVLGEGVRRSVRLNNRV
**Q.** Which binding [1] does the source give for B1 here?
**A.** The binding was “binds”.

**Q.** And the binding [2]?
**A.** Its binding is “binds”.
